Laboratory results as given in the supplement of paper PMC10849652.
Some of the results follow.

Sequences of proteins named here, by UniProt entry; tags and fusion partners are left off. A change or cut given only in a name is not applied to a line headed by its entry.
UniProt Q9ULT8: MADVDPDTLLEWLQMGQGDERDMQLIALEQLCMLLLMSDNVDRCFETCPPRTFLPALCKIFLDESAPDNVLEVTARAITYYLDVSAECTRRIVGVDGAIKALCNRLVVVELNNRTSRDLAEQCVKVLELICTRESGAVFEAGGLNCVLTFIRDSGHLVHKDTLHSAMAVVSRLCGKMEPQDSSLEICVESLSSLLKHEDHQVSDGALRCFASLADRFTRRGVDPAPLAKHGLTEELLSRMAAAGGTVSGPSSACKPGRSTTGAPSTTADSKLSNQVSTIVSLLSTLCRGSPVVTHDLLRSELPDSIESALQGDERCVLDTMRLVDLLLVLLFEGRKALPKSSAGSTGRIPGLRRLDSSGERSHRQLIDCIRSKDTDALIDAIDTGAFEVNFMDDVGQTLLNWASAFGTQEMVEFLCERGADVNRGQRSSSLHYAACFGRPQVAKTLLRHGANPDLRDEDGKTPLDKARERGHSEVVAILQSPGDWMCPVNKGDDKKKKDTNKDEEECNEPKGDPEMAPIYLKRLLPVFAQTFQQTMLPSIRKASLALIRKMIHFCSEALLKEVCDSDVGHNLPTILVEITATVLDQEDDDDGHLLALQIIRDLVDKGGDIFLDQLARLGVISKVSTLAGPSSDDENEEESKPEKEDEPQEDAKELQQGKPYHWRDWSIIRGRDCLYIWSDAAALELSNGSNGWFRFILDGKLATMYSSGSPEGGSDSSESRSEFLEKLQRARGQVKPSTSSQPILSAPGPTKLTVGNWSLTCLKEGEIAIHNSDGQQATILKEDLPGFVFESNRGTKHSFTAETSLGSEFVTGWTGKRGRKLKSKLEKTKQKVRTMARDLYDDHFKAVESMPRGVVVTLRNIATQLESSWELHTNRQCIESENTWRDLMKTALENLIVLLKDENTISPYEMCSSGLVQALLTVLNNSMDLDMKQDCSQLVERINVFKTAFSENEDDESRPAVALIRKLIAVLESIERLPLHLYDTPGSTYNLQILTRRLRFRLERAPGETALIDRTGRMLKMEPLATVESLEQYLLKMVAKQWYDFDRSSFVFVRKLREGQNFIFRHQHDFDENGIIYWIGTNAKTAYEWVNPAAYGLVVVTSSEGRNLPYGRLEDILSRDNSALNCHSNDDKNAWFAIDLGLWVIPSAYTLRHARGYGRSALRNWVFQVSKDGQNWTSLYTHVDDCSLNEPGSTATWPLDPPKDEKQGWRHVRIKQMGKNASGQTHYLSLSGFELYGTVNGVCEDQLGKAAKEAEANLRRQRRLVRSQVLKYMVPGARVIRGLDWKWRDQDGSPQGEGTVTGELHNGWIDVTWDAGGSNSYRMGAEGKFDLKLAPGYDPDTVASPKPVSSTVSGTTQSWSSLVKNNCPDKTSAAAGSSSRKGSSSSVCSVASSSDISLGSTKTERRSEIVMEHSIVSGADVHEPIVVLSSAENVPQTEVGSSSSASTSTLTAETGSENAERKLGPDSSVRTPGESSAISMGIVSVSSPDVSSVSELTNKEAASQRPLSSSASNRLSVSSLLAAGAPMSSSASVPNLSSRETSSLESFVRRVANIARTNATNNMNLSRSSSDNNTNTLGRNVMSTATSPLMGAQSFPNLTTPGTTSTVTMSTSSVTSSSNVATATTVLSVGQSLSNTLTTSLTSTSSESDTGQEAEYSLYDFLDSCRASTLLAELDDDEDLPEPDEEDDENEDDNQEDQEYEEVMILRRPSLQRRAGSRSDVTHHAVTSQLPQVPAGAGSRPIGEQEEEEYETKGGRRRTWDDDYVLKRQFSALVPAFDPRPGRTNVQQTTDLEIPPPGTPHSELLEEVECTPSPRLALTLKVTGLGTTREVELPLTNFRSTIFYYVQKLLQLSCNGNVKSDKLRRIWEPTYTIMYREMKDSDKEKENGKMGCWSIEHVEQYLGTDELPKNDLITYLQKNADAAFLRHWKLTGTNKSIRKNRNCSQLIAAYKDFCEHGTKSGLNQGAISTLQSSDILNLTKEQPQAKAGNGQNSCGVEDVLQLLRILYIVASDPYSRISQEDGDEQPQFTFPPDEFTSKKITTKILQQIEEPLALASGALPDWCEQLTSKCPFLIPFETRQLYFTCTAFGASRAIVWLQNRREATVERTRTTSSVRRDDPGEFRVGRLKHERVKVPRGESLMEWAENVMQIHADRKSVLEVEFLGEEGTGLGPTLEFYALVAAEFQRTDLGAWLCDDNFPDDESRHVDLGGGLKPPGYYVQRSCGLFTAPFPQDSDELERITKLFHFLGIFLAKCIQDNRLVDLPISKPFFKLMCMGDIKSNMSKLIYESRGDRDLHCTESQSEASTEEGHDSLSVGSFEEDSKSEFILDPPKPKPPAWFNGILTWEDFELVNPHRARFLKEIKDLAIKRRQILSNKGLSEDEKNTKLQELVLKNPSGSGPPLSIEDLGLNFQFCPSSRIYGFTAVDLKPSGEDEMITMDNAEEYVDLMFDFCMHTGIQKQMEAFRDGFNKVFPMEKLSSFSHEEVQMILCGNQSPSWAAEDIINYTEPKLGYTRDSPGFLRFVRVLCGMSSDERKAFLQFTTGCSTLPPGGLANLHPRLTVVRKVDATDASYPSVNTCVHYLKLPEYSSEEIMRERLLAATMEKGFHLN
UniProt Q14103: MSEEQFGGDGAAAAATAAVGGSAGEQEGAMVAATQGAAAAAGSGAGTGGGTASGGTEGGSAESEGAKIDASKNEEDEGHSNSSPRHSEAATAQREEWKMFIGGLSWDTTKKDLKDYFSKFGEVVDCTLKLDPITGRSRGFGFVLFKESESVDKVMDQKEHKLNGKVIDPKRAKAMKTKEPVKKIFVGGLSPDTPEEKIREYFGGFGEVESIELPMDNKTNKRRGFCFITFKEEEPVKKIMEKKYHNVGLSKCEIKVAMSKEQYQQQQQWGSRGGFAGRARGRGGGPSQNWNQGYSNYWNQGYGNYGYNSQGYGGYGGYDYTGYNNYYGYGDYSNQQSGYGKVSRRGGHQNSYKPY
UniProt P14625, whole entry, looked up: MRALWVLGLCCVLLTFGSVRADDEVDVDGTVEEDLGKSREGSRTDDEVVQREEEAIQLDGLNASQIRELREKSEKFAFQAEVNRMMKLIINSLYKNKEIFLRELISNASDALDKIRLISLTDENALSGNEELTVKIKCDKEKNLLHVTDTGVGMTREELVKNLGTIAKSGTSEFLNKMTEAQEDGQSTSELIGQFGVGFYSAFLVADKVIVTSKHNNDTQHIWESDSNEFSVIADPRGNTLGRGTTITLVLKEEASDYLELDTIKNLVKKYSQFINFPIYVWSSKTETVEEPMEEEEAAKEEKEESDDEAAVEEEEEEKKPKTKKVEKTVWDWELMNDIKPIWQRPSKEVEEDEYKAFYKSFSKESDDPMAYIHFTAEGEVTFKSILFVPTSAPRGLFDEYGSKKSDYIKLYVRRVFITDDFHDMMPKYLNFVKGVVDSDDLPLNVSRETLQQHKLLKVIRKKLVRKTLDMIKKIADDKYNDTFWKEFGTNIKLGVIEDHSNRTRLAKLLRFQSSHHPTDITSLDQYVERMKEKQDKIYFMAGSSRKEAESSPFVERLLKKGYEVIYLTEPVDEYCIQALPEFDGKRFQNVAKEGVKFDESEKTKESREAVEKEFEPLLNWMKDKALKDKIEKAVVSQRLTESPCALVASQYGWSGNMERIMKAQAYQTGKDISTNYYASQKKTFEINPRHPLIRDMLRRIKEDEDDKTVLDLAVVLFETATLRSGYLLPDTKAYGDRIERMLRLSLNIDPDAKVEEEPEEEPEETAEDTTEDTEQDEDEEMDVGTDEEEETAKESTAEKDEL
UniProt P52272: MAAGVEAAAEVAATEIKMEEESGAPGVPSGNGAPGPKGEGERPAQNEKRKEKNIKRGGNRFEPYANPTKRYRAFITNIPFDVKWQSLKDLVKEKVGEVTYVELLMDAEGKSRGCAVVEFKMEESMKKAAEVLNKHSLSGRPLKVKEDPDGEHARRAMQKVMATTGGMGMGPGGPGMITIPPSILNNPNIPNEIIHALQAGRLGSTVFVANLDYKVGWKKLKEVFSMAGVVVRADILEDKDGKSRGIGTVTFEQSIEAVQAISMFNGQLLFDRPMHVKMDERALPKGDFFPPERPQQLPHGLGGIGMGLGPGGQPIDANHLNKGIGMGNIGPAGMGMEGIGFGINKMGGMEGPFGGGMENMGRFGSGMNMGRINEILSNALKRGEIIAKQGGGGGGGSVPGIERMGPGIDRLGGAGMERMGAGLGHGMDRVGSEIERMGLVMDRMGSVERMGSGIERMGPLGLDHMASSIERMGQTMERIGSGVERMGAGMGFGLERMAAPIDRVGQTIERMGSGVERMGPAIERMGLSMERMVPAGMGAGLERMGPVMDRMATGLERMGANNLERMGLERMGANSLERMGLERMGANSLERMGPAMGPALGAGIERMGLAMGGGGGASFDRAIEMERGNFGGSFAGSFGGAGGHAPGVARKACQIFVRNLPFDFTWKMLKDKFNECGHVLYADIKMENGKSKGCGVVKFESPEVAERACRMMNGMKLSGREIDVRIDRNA
UniProt P07910: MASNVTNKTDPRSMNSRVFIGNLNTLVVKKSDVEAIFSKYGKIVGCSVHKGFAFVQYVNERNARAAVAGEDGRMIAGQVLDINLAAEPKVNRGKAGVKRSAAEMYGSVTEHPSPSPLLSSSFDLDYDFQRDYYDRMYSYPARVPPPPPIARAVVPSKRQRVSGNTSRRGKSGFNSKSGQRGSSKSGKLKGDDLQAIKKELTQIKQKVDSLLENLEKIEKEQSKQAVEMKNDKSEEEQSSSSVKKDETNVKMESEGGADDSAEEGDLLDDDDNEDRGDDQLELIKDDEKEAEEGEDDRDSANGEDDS
UniProt P14866: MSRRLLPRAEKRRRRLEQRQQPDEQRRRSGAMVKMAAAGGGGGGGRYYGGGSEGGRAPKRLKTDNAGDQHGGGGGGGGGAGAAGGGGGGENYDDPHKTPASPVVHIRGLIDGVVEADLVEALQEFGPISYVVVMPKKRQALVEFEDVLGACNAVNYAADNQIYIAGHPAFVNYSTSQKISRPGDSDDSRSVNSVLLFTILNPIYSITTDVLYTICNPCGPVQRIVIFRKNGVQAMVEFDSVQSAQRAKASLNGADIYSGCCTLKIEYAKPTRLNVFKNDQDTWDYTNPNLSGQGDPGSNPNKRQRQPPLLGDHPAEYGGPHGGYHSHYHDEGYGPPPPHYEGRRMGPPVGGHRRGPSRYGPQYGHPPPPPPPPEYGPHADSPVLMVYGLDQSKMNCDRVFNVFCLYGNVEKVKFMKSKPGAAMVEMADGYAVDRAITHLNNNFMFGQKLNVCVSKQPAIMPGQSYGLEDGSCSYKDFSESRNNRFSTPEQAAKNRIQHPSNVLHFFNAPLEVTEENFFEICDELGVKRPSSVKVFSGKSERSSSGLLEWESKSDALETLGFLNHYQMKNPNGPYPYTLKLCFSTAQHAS
UniProt Q53GQ0: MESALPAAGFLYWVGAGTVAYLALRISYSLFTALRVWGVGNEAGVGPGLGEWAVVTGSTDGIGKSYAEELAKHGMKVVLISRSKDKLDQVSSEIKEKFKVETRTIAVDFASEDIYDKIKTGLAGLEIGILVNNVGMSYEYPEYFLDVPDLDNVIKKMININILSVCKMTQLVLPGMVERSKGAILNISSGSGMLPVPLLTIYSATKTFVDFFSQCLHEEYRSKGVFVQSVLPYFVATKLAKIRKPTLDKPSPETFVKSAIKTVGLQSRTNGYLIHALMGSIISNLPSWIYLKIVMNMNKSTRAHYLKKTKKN

Tests used:
Assay in all cases: log2 fold change, soluble protein after heating vs DMSO (PISA); higher = thermal stabilisation; K562 lysate, 10 uM; active = over 0.2 and 3.5 SD of the protein, either way, in both replicates (recomputed)
[1] = compound: CS(=O)(=O)CCNCc1ccc(-c2ccc3ncnc(Nc4ccc(OCc5cccc(F)c5)c(Cl)c4)c3c2)o1 [lapatinib]
Procedure, shortened: (§1)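 To prepare the extract, K562 pellets were dounce-homogenised in PBS pH 7.4 with 1 mM MgCl2, giving crude material at 1 mg/mL protein. This was treated with 10 μM compound for 30 min, then heated in aliquots for 3 min over 48°C-58°C before pooling and addition of NP-40 to 0.5% at 4°C. Centrifugation at 21,000xg for 90 min left soluble protein in the supernatant, which TMTpro 16plex LC-MS/MS quantified with equalised channel sums. Results are log-two fold changes in thermal stability compared with solvent controls, from duplicates.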

[2] = compound: CS(=O)(=O)N1CCN(Cc2cc3nc(-c4cccc5[nH]ncc45)nc(N4CCOCC4)c3s2)CC1 [pictilisib]
Procedure, shortened: as §1

[3] = compound: C[C@@H](Oc1cc(-c2cnn(C3CCNCC3)c2)cnc1N)c1c(Cl)ccc(F)c1Cl [crizotinib]
Procedure, shortened: as §1

[4] = compound: C[C@H](C1=CC=C(C=C1)C(=O)NC2=C3C=CNC3=NC=C2)N
Procedure, shortened: as §1

[5] = compound: C[C@H](Nc1ncnc2nc[nH]c12)c1cc2cccc(Cl)c2c(=O)n1-c1ccccc1 [duvelisib]
Procedure, shortened: as §1

[6] = compound: Cc1cc(Nc2cc(CN3CCOCC3)c3nc(C)c(Cc4ccc(Cl)cc4F)n3n2)n[nH]1 [gandotinib]
Procedure, shortened: as §1

[7] = compound: Cc1cc(Nc2cc(N3CCN(C)CC3)nc(Sc3ccc(NC(=O)C4CC4)cc3)n2)n[nH]1 [tozasertib]
Procedure, shortened: as §1

[8] = compound: Cc1ccc(-n2nc(C(C)(C)C)cc2NC(=O)Nc2ccc(OCCN3CCOCC3)c3ccccc23)cc1 [doramapimod]
Procedure, shortened: as §1

[9] = compound: Cc1ccc(NC(=O)c2ccc(CN3CC[C@H](N(C)C)C3)c(C(F)(F)F)c2)cc1Nc1nccc(-c2cncnc2)n1 [bafetinib]
Procedure, shortened: as §1

[10] = compound: Cc1cccc(CC(=O)N2CCc3c2ccc(-c2cn(C)c4ncnc(N)c24)c3F)n1
Procedure, shortened: as §1

[11] = compound: Cc1cn(-c2cc(NC(=O)c3ccc(C)c(Nc4nccc(-c5cccnc5)n4)c3)cc(C(F)(F)F)c2)cn1 [nilotinib]
Procedure, shortened: as §1

[12] = compound: Cc1nc(Nc2n[nH]c3c2CN(C(=O)N[C@H](CN(C)C)c2ccccc2)C3(C)C)c2sccc2n1
Procedure, shortened: as §1

[13] = compound: Cc1nc(Nc2ncc(C(=O)Nc3c(C)cccc3Cl)s2)cc(N2CCN(CCO)CC2)n1 [dasatinib]
Procedure, shortened: as §1

[14] = compound: Cc1ncc(-c2ccnc(Nc3ccc(S(C)(=O)=O)cc3)n2)n1C(C)C
Procedure, shortened: as §1

[15] = compound: Cn1cc(-c2ccc3c(c2)CCN3C(=O)Cc2cccc(C(F)(F)F)c2)c2c(N)ncnc21
Procedure, shortened: as §1

[16] = compound: Cn1cc(CNCC2CCN(c3ncc(C(=O)NO)cn3)CC2)c2ccccc21 [quisinostat]
Procedure, shortened: as §1

[17] = compound: Cn1cncc1[C@@](N)(c1ccc(Cl)cc1)c1ccc2c(c1)c(-c1cccc(Cl)c1)cc(=O)n2C [tipifarnib]
Procedure, shortened: as §1

[18] = compound: NC(=O)Nc1cc(-c2cccc(F)c2)sc1C(=O)N[C@H]1CCCNC1
Procedure, shortened: as §1

[19] = compound: NC(=O)c1cnc(N[C@@H]2CCCC[C@@H]2N)nc1Nc1cccc(-n2nccn2)c1
Procedure, shortened: as §1

[20] = compound: NC1(c2ccc(-c3nc4ccn5c(=O)[nH]nc5c4cc3-c3ccccc3)cc2)CCC1
Procedure, shortened: as §1

Row | Target | log2 fold change [1] | log2 fold change [2] | log2 fold change [3] | log2 fold change [4] | log2 fold change [5] | log2 fold change [6] | log2 fold change [7] | log2 fold change [8] | log2 fold change [9] | log2 fold change [10] | log2 fold change [11] | log2 fold change [12] | log2 fold change [13] | log2 fold change [14] | log2 fold change [15] | log2 fold change [16] | log2 fold change [17] | log2 fold change [18] | log2 fold change [19] | log2 fold change [20]
1 | HECTD1 (UniProt Q9ULT8) | inactive: 0.014 | inactive: -0.039 | inactive: -0.031 | inactive: 0.005 | inactive: 0.015 | inactive: -0.029 | inactive: 0.013 | inactive: 0.031 | inactive: -0.047 | inactive: 0.074 | inactive: -0.008 | inactive: 0.032 | inactive: -0.021 | inactive: -0.006 | inactive: 0.032 | inactive: -0.041 | inactive: -0.004 | inactive: 0.01 | inactive: 0.03 | inactive: 0.007
2 | HNRNPD isoform 3 (UniProt Q14103) | inactive: -0.062 | inactive: 0.126 | inactive: -0.07 | inactive: -0.08 | inactive: 0.043 | inactive: 0.094 | inactive: -0.078 | inactive: 0.045 | inactive: 0.166 | inactive: 0.033 | inactive: 0.012 | inactive: -0.073 | inactive: 0.017 | inactive: 0.017 | inactive: 0.065 | inactive: 0.005 | inactive: -0.002 | inactive: 0.021 | inactive: 0.028 | inactive: -0.033
3 | HSP90B1 (UniProt P14625) | inactive: -0.001 | inactive: 0.022 | inactive: 0.031 | inactive: 0.028 | inactive: -0.004 | inactive: -0.012 | inactive: -0.001 | inactive: -0.043 | inactive: 0.018 | inactive: -0.048 | inactive: 0.004 | inactive: -0.01 | inactive: 0.029 | inactive: -0.005 | inactive: -0.001 | inactive: 0.046 | inactive: -0.008 | inactive: -0.019 | inactive: -0.007 | inactive: 0.006
4 | HNRNPM (UniProt P52272) | inactive: -0.001 | inactive: 0.063 | inactive: 0.025 | inactive: -0.011 | inactive: -0.022 | inactive: 0.02 | inactive: -0.019 | inactive: -0.113 | inactive: -0.029 | inactive: 0.053 | inactive: 0.022 | inactive: -0.043 | inactive: -0.109 | inactive: -0.05 | inactive: 0.01 | inactive: 0.055 | inactive: -0.112 | inactive: 0.054 | inactive: -0.002 | inactive: 0.053
5 | HNRNPK isoform 2 (UniProt P61978) | inactive: 0.004 | inactive: 0.009 | inactive: -0.015 | inactive: -0.02 | inactive: -0.017 | inactive: 0.019 | inactive: -0.02 | inactive: 0.046 | inactive: 0 | inactive: 0.015 | inactive: -0.02 | inactive: -0.014 | inactive: -0.011 | inactive: 0.001 | inactive: -0.009 | inactive: -0.082 | inactive: 0.018 | inactive: 0 | inactive: -0.011 | inactive: -0.03
6 | HNRNPC (UniProt P07910) | inactive: 0.018 | inactive: 0.004 | inactive: -0.011 | inactive: 0.171 | inactive: 0.051 | inactive: -0.071 | inactive: -0.012 | inactive: -0.021 | inactive: -0.077 | inactive: 0.01 | inactive: -0.028 | inactive: -0.034 | inactive: -0.038 | inactive: -0.015 | inactive: 0.023 | inactive: 0.016 | inactive: 0.029 | inactive: -0.004 | inactive: -0.005 | inactive: 0.008
7 | HNRNPL (UniProt P14866) | inactive: 0.005 | inactive: -0.02 | inactive: -0.042 | inactive: 0.018 | inactive: 0.03 | inactive: -0.081 | inactive: -0.011 | inactive: -0.018 | inactive: 0.004 | inactive: -0.016 | inactive: -0.011 | inactive: -0.015 | inactive: -0.036 | inactive: 0.013 | inactive: 0.068 | inactive: -0.07 | inactive: 0.012 | inactive: 0.042 | inactive: -0.001 | inactive: 0.022
8 | HSD17B12 (UniProt Q53GQ0) | active: 0.31 | inactive: -0.034 | inactive: -0.025 | inactive: -0.158 | inactive: -0.08 | active: 0.41 | inactive: 0.011 | inactive: 0.047 | inactive: -0.019 | inactive: 0.149 | inactive: -0.024 | inactive: -0.04 | inactive: 0.016 | inactive: 0.033 | inactive: 0.007 | inactive: 0.073 | inactive: -0.118 | inactive: 0.058 | inactive: 0.012 | inactive: -0.045
